At least one peptide structure holds a part that was inferred or is arguable (an end, a ring closure or a residue). Where no end group is shown, it is not given here.
Assays:
[1] = tested on: adult rat cardiac fibroblasts; experiment: Cardiac fibroblast proliferation, cell count in Neubauer chamber; assay type: cell-based; details: DMEM F-12 5% FBS, 24 h, trypan blue cell count
Method: Male Sprague-Dawley rats (250-300 g) were anesthetized with ketamine-xylazine (66 and 1.6 mg/kg i.p., respectively). Adult rat cardiac fibroblasts were isolated by retrograde aortic perfusion. Briefly, hearts were digested with collagenase type B solution for 1 h, and cells were centrifuged at 500 rpm for 2 min. The supernatant, mainly adult rat cardiac fibroblasts, was centrifuged at 1000 rpm for 10 min, resuspended in Dulbecco's Modified Eagle Medium: Nutrient Mixture F-12 (DMEM F-12) plus 15% fetal bovine serum (FBS) and then seeded in nontreated culture dishes during 3 h. Cells were washed with phosphate buffered saline to eliminate debris and nonadherent cells. Adult rat cardiac fibroblasts were used at passage one and seeded on 60 mm cell culture dishes in DMEM F-12 plus 10% FBS and incubated at […] for 3 h. To synchronize cells, they were washed and incubated in DMEM F-12 (without serum, 0% FBS) for 24 h before experimentation. Cell proliferation was determined in cardiac fibroblasts incubated for 24 h with and without retro-inverse angiotensin-(1-9) in DMEM F-12 5% FBS. Cells were trypsinized and cell number was determined using trypan blue method in a Neubauer chamber.

[2] = tested on: spontaneously hypertensive rats (SHR); experiment: β-MHC protein level in left ventricle of SHR (cardiac hypertrophy); assay type: in vivo, rat; details: SHR, 1,200 ng/kg/min, 14 days, left ventricle western blot
Method: (§1) Experimental animal model. All procedures were performed in accordance with the Guide for the Care and Use of Laboratory Animals published by the U.S. National Institutes of Health (NIH Publication 85 23, 1985) and approved by our Institutional Bioethics Committee. The animals were housed under the continuous professional monitoring of the Medical Veterinary staff in the animal facility of the Pontificia Universidad Católica de Chile, under the following conditions: 12-h light-dark cycle; 21° C. ambient temperature; 50% humidity; adequate ventilation; noise-free environment; and food and water ad libitum. Male spontaneously hypertensive rats (SHR, age 12 weeks) and normotensive Wistar Kyoto rats (WKY, 12 weeks age) were used. […] Systolic blood pressure (SBP), diastolic blood pressure (DBP) and body weight (BW) were measured at the end of the treatment period and the animals were then sacrificed.
Measurement of β-MHC protein level to assess cardiac hypertrophy. β-MHC protein levels were determined by Western blotting. […] Digital images obtained from the photographic films were analyzed by densitometry using Image J software (NIH, USA). […]

[3] = tested on: spontaneously hypertensive rats (SHR); experiment: Cardiac hypertrophy by morphometry analysis in SHR; assay type: in vivo, rat; details: SHR, 1,200 ng/kg/min, 14 days, left ventricle
Method: as §1
Measurement of cardiac hypertrophy by morphometry analysis. […] Cardiomyocyte size (area and perimeter) was determined as described by Ocaranza et al. (J. Hypertens. 2010; 28:1054-1064). […]

[4] = tested on: spontaneously hypertensive rats (SHR); experiment: Fibroblast proliferation in cardiac tissue of SHR, Ki67 immunohistochemistry; assay type: in vivo, rat; details: SHR, 1,200 ng/kg/min, 14 days
Method: as §1, with “libitum.” for “libitum. Male spontaneously hypertensive rats (SHR, age 12 weeks) and normotensive Wistar Kyoto rats (WKY, 12 weeks age) were used.”
Immunohistochemistry for Ki67. Proliferation of fibroblast, another marker of fibrosis, was assessed by measuring the presence of Ki-67 positive nuclei. […] Two blinder researchers counted manually positive cells in 10 high-power fields (×40). […] The percentage of positive Ki67 cells was calculated. As observed with the above cardiac fibrosis marker, collagen content assessed by picrosirius red staining, in hypertensive SHR, an increase in fibroblast with Ki-67 positive nuclei were found, confirming the occurrence of cardiac fibrosis.

For “DRVYIHPFH [angiotensin-(1-9), Asp-Arg-Val-Tyr-Ile-His-Pro-Phe-His]”, the fibroblast proliferation [1] was “in the same extent that angiotensin-(1-9) does”, the “increase in β-MHC induced by hypertension” value [2] was “like those observed with angiotensin-(1-9)” and the “increase of area of cardiomyocytes induced by hypertension” value [3] was “like those observed with angiotensin-(1-9)”. For the same sequence, the “increase of perimeter of cardiomyocytes induced by hypertension” value [3] was “like those observed with angiotensin-(1-9)” and the “increase of fibroblast with Ki-67 positive nuclei induced by hypertension” value [4] was “like those observed with angiotensin-(1-9)”.

— patent publication US20250206779A1, “ANGIOTENSIN-(1-9) ANALOGUE BASED ON D AMINO ACIDS, PHARMACEUTICAL COMPOSITIONS AND USES THEREOF” (UNIVERSIDAD DE CHILE, priority 2021, published 2025)
